Data taken from PubChem BioAssay AID602313 (National Center for Advancing Translational Sciences (NCATS), 2012).
Screen size: about 390,000 compounds; about 760 (0.19%) were called active. This list was built around the results that the source calls inconclusive (neither active nor inactive); the mix of calls is not that of the screen. Calls come from the whole dose curve; as a rule, active = well fitted inhibition curve with a large enough effect; inconclusive = small, poorly fitted or top-dose-only effect; inactive = flat fitted curve, though single readings scatter. A potency beside an inconclusive call is a rough fit, not a confirmed value.

Assay: qHTS for Inhibitors of Vif-A3F Interactions: qHTS; note: nearly all actives have a fitted effect of over 65% in size; for activity, negative = active: % of control where 0% means no effect
Settings: HeLa A3F-eYFP + Vif (tagged APOBEC3F with the HIV-1 protein that degrades it), YFP fluorescence increase; series mostly up to 46.1 µM; activity, negative = active: at the top concentration
Procedure, shortened: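 Fluorescence increase (Ex 488/Em 500-530) after overnight compound treatment at 37 deg C flags inhibition of Vif-driven A3F-eYFP loss in stable HeLa A3F-eYFP/Vif cells seeded overnight beforehand.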
Potency is the fitted concentration of half-maximal effect.

SMILES	activity, negative = active	Potency
O=C1C=C(c2c(O)ccc3ccccc23)c2ccccc2C1=O	inactive: -9.57%	
COc1cc2c3nnc(-c4ccc(F)cc4)c-3cn(Cc3ccc(F)cc3)c2cc1OC		inconclusive: 2.82 µM [inhibitor, partial curve, poor fit]
CCSc1ncc(Cl)c(C(=O)Nc2sc3c(c2C(=O)NCCCOC)CCCC3)n1		inconclusive: 5.62 µM [inhibitor, single point]
Cc1ccc(NC(=O)/C=C/c2ccc([N+](=O)[O-])s2)c(C)c1		active: 10 µM
COc1ccc(CCNC(=O)CC2SC(=NCCc3ccccc3)NC2=O)cc1OC (stereo unspecified)		inconclusive: 4.47 µM [inhibitor, single point]
Cc1ccc(NC(=O)C2CCN(S(=O)(=O)c3cccc4nonc34)CC2)cc1C		inconclusive: 22.4 µM [inhibitor, partial curve, poor fit]
c1ccc(COc2ccc(CNCc3cccs3)cc2)cc1		inconclusive: 14.1 µM [inhibitor, partial curve, poor fit]
Cc1ccccc1CNc1ccc(C(CC(N)=O)NC(=O)c2ccc(Br)cc2)cc1[N+](=O)[O-] (stereo unspecified)		inconclusive: 31.6 µM [inhibitor, single point]
Fc1cccc(Cn2cc(C(=S)N3CCCCC3)c3ccccc32)c1		inconclusive: 4.47 µM [inhibitor, single point]
O=C(CC1CC2CCC1C2)Nc1nc(-c2ccccn2)cs1 (stereo unspecified)		active: 12.6 µM
CC(=O)Nc1ccc2sn(-c3ccccc3)c(=O)c2c1		inconclusive: 15.8 µM [inhibitor, single point]
O=Cc1cnc(N2CCCCC2)s1	inactive: 0.678%	
O=C(CN1C(=O)S/C(=C\c2cc(Cl)c(O)c(Cl)c2)C1=O)Nc1ccccc1		active: 12.6 µM
CCOC(=O)C1CCCN(C(=O)c2cc(S(=O)(=O)Nc3ccccc3OC)ccc2C)C1 (stereo unspecified)		inconclusive: 35.5 µM [inhibitor, single point]
COc1ccc(C(CC(=O)O)c2cc(OC)c(OC)c(OC)c2)cc1OC (stereo unspecified)		inconclusive: 28.2 µM [inhibitor, single point]
CCCOc1ccc(CNC(=S)Nc2ccccc2)cc1Cl		inconclusive: 22.4 µM [inhibitor, single point]
Cn1nc(C(C)(C)C)c([N+](=O)[O-])c1C(=O)NCCO	inactive: -0.29%	
COCCNc1nc(N)c([N+](=O)[O-])c(NCc2ccccc2)n1		inconclusive: 35.5 µM [inhibitor, single point]
CSc1cccc(NC(=S)N2CCCN(Cc3cccc(Cl)c3)C2)c1	inactive: -5.94%	
O=C(CCc1nc2ccccc2c(=O)[nH]1)NCCN1C(=O)S/C(=C\c2ccc(Cl)cc2Cl)C1=O		inconclusive: 35.5 µM [inhibitor, single point]
Cc1c(/C=C(\C#N)c2nn(-c3ccccc3)c(N)c2C#N)c2ccccc2n1Cc1ccc(F)cc1		inconclusive: 35.5 µM [inhibitor, single point]
Cc1ccsc1C(=O)N(C)C1CCS(=O)(=O)C1 (stereo unspecified)	inactive: 0.514%	
CS(=O)(=O)c1ccc2nnn(OCC(=O)Nc3ccc(Br)cc3Br)c2c1		inconclusive: 22.4 µM [inhibitor, single point]

Among those listed so far, these have nitrogen in an aromatic ring.
SMILES	activity, negative = active	Potency
COc1cc2c3nnc(-c4ccc(F)cc4)c-3cn(Cc3ccc(F)cc3)c2cc1OC		inconclusive: 2.82 µM [inhibitor, partial curve, poor fit]
CCSc1ncc(Cl)c(C(=O)Nc2sc3c(c2C(=O)NCCCOC)CCCC3)n1		inconclusive: 5.62 µM [inhibitor, single point]
Cc1ccc(NC(=O)C2CCN(S(=O)(=O)c3cccc4nonc34)CC2)cc1C		inconclusive: 22.4 µM [inhibitor, partial curve, poor fit]
Fc1cccc(Cn2cc(C(=S)N3CCCCC3)c3ccccc32)c1		inconclusive: 4.47 µM [inhibitor, single point]
O=C(CC1CC2CCC1C2)Nc1nc(-c2ccccn2)cs1 (stereo unspecified)		active: 12.6 µM
CC(=O)Nc1ccc2sn(-c3ccccc3)c(=O)c2c1		inconclusive: 15.8 µM [inhibitor, single point]
O=Cc1cnc(N2CCCCC2)s1	inactive: 0.678%	
Cn1nc(C(C)(C)C)c([N+](=O)[O-])c1C(=O)NCCO	inactive: -0.29%	
COCCNc1nc(N)c([N+](=O)[O-])c(NCc2ccccc2)n1		inconclusive: 35.5 µM [inhibitor, single point]
O=C(CCc1nc2ccccc2c(=O)[nH]1)NCCN1C(=O)S/C(=C\c2ccc(Cl)cc2Cl)C1=O		inconclusive: 35.5 µM [inhibitor, single point]
Cc1c(/C=C(\C#N)c2nn(-c3ccccc3)c(N)c2C#N)c2ccccc2n1Cc1ccc(F)cc1		inconclusive: 35.5 µM [inhibitor, single point]
CS(=O)(=O)c1ccc2nnn(OCC(=O)Nc3ccc(Br)cc3Br)c2c1		inconclusive: 22.4 µM [inhibitor, single point]

Next structures

SMILES	activity, negative = active	Potency
Cc1cccc(CNc2ccc(C(CC(N)=O)NC(=O)c3ccccc3)cc2[N+](=O)[O-])c1 (stereo unspecified)		inconclusive: 35.5 µM [inhibitor, single point]
Nc1ccc(C(=O)Nc2ccccc2N)cc1		inconclusive: 22.4 µM [inhibitor, single point]
CC(=O)c1ccc(NS(=O)(=O)c2cccc(C(=O)Nc3ccccc3C(=O)O)c2)cc1	inactive: 1.39%	
CN1/C(=C\C=C(/C#N)C(=O)Nc2ccccc2F)C(C)(C)c2ccccc21		inconclusive: 2.82 µM [inhibitor, full curve, poor fit]
CCOc1cc(/C=C2\SC(=S)N(N3CCOCC3)C2=O)ccc1O	inactive: -0.464%	
CC1CCc2c(sc(NC(=O)c3cccs3)c2C(=O)O)C1 (stereo unspecified)	inactive: 9.69%	
O=C(N/N=C(\c1ccccc1)c1ccccn1)c1ccccc1Cl		inconclusive: 5.62 µM [inhibitor, single point]
Cc1cccc(C2=NN(c3ccc(Br)cc3)[C@@H](C(=O)N3CCOC3=O)[C@@H]2c2ccc(F)cc2)c1	inactive: 3.45%	
Cn1c(SCC(=O)Nc2ccc(Cl)cn2)nnc1C1CC1	inactive: -6.64%	
O=C1CCCN1S(=O)(=O)c1ccc(F)cc1		inconclusive: 22.4 µM [inhibitor, single point]
C/C=C1\COC(C(=O)NCCN2CCCC2)(C(F)(F)F)C=C1C=C1CCCCC1 (stereo unspecified)	inactive: -19.2%	
Fc1ccc2cnc(-c3ccccc3)c(-c3cc(C(F)(F)F)cc(C(F)(F)F)c3)c2c1		inconclusive: 35.5 µM [inhibitor, single point]
Cc1cccc(C)c1Nc1c(-c2ccsc2)nc2cccc(C)n12	inactive: -0.767%	
CSc1n[nH]c(/N=C/c2oc(O)c3ccccc23)n1		inconclusive: 2.51 µM [inhibitor, partial curve, poor fit]
O=C(CCCN1C(=O)/C(=C/c2ccccc2Cl)SC1=S)NNC(=O)c1ccccc1	inactive: -6.91%	
Cc1cc(NC(=O)c2cc(-c3ccc(Cl)c(Cl)c3)on2)n(-c2ccccc2)n1		inconclusive: 7.08 µM [inhibitor, partial curve, poor fit]
Cc1ccccc1N1CC(c2nc3ccccc3n2Cc2ccc(Br)cc2)CC1=O (stereo unspecified)	inactive: 0.164%	
CC(C)(C)C1CCC(=NNC(=O)c2cc3c(s2)CCCC3)CC1 (stereo unspecified)	inactive: -16.6%	
Cc1c(C)[n+](=O)c(-c2cccs2)c(C)n1[O-]		inconclusive: 3.98 µM [inhibitor, single point]
NNC(=O)c1sc(-c2ccccc2)cc1N		inconclusive: 17.8 µM [inhibitor, single point]
CCN1CCN(c2cc(C)c3cc(NC(=O)/C=C/c4ccc(C)cc4)ccc3n2)CC1		inconclusive: 15.8 µM [inhibitor, single point]
CN1CC(c2ccccn2)C2(SC(=S)N(Cc3ccccc3)C2=O)C12C(=O)Nc1ccccc12 (stereo unspecified)	inactive: -7.17%	
Nc1c(C(=O)C2CC2)sc2nc(-c3ccccc3)cc(C(F)(F)F)c12		inconclusive: 5.62 µM [inhibitor, single point]
